Test results taken from publication PMC7320039.

Target: T1, Flag-DYRK2 (dual-specificity tyrosine-phosphorylation-regulated kinase 2), wild type (human) (UniProt Q92630)
T1 sequence: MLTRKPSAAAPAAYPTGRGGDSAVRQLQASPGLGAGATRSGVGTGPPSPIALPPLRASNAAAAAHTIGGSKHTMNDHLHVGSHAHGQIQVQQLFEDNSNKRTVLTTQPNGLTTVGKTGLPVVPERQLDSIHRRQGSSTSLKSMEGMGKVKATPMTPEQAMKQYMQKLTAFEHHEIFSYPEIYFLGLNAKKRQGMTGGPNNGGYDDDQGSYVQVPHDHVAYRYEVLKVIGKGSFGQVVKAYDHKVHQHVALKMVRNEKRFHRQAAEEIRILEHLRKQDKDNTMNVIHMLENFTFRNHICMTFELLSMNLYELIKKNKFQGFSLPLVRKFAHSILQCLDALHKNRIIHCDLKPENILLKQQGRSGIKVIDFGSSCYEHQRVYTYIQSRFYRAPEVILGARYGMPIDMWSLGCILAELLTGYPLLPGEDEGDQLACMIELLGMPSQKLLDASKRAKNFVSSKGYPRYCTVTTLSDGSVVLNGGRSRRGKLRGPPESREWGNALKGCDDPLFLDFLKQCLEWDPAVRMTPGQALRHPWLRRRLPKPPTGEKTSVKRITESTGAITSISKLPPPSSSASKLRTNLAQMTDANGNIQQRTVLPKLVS
Test: co-IP; HEK-293T co-transfected, MG-132 (10 uM) for the last 12 h; lysis in IP buffer (50 mM Hepes pH 7.5, 50 mM NaCl, 1% Triton X-100, 2 mM EDTA); IP with anti-Flag antibody and protein A/G Sepharose, western blot

binding: binds
Substance: Myc-tagged Notch1-IC (intracellular domain of NOTCH1) (domain or fragment)

Results are given in words; binding and its absence hold for the method and conditions named. Binding seen in cells or lysates may run through a third protein. A result given as binding can be weak or reduced; the word gives no strength. Where a sequence is shown, tags or fusion partners need not be part of it.
